Results are given in words; binding and its absence hold for the method and conditions named. Binding seen in cells or lysates may run through a third protein. Some entries that bind do so weakly or less than the wild type.

By UniProt entry, the sequences of proteins in these tests, tags left out.
UniProt P49327: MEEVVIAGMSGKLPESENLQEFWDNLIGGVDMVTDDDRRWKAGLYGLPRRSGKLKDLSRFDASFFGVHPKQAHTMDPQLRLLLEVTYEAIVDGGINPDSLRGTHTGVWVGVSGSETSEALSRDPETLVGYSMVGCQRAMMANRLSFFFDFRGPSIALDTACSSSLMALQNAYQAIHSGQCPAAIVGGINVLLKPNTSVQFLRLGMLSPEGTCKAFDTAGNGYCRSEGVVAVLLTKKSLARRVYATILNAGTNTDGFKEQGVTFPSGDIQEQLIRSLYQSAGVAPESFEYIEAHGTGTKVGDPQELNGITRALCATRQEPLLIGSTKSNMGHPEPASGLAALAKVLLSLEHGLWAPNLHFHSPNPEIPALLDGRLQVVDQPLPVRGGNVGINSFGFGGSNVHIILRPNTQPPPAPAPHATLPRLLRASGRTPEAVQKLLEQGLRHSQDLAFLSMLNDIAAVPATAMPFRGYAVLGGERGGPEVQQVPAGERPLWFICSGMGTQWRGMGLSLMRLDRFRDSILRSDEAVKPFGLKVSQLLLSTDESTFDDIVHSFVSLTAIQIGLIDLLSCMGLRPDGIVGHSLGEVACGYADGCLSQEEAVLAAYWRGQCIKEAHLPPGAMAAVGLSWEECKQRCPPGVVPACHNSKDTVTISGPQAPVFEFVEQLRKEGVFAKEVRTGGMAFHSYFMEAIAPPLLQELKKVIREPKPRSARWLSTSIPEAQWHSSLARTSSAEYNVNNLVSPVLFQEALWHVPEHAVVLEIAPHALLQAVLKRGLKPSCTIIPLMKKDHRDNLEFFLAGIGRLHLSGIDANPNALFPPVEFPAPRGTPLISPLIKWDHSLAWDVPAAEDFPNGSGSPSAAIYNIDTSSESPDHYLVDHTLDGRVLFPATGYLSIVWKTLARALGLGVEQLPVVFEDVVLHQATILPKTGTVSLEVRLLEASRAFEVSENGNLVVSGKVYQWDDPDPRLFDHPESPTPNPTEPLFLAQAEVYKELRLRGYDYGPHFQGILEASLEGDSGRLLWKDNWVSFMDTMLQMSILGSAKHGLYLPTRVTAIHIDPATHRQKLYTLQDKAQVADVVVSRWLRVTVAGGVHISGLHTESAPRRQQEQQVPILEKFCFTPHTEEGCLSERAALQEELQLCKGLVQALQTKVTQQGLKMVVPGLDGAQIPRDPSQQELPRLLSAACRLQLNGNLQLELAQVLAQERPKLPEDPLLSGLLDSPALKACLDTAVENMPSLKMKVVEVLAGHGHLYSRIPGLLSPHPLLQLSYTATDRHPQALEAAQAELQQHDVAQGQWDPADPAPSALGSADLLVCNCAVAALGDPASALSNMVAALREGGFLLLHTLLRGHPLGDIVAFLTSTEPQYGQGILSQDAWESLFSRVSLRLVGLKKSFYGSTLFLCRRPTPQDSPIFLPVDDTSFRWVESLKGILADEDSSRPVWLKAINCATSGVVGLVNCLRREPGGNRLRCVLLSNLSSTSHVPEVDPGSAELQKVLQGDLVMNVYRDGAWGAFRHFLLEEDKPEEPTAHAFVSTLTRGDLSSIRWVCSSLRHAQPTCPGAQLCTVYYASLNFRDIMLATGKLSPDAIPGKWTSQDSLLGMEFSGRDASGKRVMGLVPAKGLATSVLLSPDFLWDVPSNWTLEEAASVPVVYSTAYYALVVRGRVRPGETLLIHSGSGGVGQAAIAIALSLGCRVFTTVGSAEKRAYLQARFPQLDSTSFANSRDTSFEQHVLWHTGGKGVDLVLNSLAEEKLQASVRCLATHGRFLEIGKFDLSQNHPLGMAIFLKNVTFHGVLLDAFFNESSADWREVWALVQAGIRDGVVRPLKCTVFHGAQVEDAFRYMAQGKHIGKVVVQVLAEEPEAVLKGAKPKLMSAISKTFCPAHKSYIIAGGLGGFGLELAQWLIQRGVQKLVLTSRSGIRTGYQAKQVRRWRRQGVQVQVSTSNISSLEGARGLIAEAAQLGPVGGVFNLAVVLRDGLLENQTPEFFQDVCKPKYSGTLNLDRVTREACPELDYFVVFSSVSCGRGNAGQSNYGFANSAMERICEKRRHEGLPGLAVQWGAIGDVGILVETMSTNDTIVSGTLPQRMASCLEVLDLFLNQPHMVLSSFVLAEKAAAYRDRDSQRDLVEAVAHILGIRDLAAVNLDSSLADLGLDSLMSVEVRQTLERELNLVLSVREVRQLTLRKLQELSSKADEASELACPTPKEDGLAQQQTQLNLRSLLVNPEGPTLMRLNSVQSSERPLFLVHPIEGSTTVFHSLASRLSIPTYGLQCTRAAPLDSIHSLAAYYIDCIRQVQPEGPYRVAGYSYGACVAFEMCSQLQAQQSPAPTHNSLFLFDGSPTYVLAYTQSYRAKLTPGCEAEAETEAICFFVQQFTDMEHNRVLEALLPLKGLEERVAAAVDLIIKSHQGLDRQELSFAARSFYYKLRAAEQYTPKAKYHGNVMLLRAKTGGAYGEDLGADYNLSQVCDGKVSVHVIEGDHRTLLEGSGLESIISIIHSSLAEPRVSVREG

The target in this test is fatty acid synthase (human (endogenous in DG75)) (UniProt P49327). In words: co-IP; lysate of 10 million LMP1- (empty vector) or LMP1+ DG75 cells in RIPA buffer; 10 ug polyclonal rabbit anti-FASN or normal rabbit IgG, protein A magnetic beads, overnight at 4°C; immunoblot for FASN and USP2a.

B1: ubiquitin-specific peptidase 2a (enzyme, UniProt O75604-1 1-605)
chain: MSQLSSTLKRYTESARYTDAHYAKSGYGAYTPSSYGANLAASLLEKEKLGFKPVPTSSFLTRPRTYGPSSLLDYDRGRPLLRPDITGGGKRAESQTRGTERPLGSGLSGGSGFPYGVTNNCLSYLPINAYDQGVTLTQKLDSQSDLARDFSSLRTSDSYRIDPRNLGRSPMLARTRKELCTLQGLYQTASCPEYLVDYLENYGRKGSASQVPSQAPPSRVPEIISPTYRPIGRYTLWETGKGQAPGPSRSSSPGRDGMNSKSAQGLAGLRNLGNTCFMNSILQCLSNTRELRDYCLQRLYMRDLHHGSNAHTALVEEFAKLIQTIWTSSPNDVVSPSEFKTQIQRYAPRFVGYNQQDAQEFLRFLLDGLHNEVNRVTLRPKSNPENLDHLPDDEKGRQMWRKYLEREDSRIGDLFVGQLKSSLTCTDCGYCSTVFDPFWDLSLPIAKRGYPEVTLMDCMRLFTKEDVLDGDEKPTCCRCRGRKRCIKKFSIQRFPKILVLHLKRFSESRIRTSKLTTFVNFPLRDLDLREFASENTNHAVYNLYAVSNHSGTTMGGHYTAYCRSPGTGEWHTFNDSSVTPMSSSQVRTSDAYLLFYELASPPSRM
For the molecule B1, the binding result is “binds”.

These data come from publication PMC7851568.
